Hit rate of the full screen: of about 53,000 sequences, about 3,700 (7%) were called active.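 How the source made its calls: active means gene knockdowns whose robust z-score for IL-1 alpha signal is at least 2 or at most -2, so actives lie on both sides; inactive means the rest.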 Some of the results follow.

For 107 sequences, z-score results are on record in PubChem BioAssay AID1508600 (Functional Genomics Laboratory (NCATS/FGL), 2020).

This assay can be described thus: Components of the Cytosolic LPS Sensing Pathway: Gene Identification via Genome-wide siRNA Screen.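 Further: robust z of the log signal after scaling to non-targeting control siRNA wells of the plate.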 Particulars: RAW264.7 macrophages, IL-1a HTRF, actives lie on both sides, screened at 100 nM (by protocol), cells primed 5 h with Pam3CSK4 first. A digest of the protocol: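 Mouse macrophage line RAW264.7 is transfected with siRNA (100 nM final), grown 48h, primed with TLR ligand Pam3CSK4 5 h and given intracellular LipidA 24 h. IL-1a in supernatant is read by HTRF and viability by luminescence.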
In general terms: TR-FRET usually uses a lanthanide donor and a delayed reading to cut background.
As to CCCAAUAUUCAAGGAUAUATT against Grk4, the z-score was inactive: 0.164. For GGUGGUGUCUUCUGUGCAATT against Cd3d, the z-score is inactive: 0.543. For GGACUUGCAUUCUUAUGCUTT against Dipk2b, the z-score was inactive: 0.769. With GGAUAAUGCUUUAUGGGAATT against Ccdc70 the figure was inactive: 0.899.

GAAUGCGAAGCCUUCCGCATT against Gfra4: the z-score is inactive: 1.2.

GGAAAAGCAUUUUCAACGUTT against Lhfpl2: the z-score is inactive: -1.41.

As for GCUCAAGUGCGAUUGUAAGTT against Arhgef10l, the z-score is inactive: -1.11. Take GGAAAUCAGUGAACAUCUUTT against Tshr: the z-score is inactive: 0.525. With GGAGUAAAGACAUUCAGGATT against Nlrp4f the figure was inactive: 0.716; with GCAACCUUUUUACAACACCTT against Zfp935, inactive: -0.272. Consider GGAUAAAGCCCAGUGAACCTT against Fam163b, for which the z-score was inactive: 0.29. On to GGAUGUACGGAAGCGAUUCTT against Gmpr2, for which the z-score was inactive: 0.404. With GGUGGAGCUGCUCAAGAUUTT against Fkbp2 the figure was inactive: -0.733; with GGUUUUAGGGUUUUUAACATT against Lpar2, inactive: 0.0242.

In the case of GGAUGAGCAGAUGCUCCAATT against Mtmr7, the z-score is inactive: 0.451. With GCUCAAUGCAGAAGGACGGTT against Bpifa3 the figure was inactive: 0.432; with GGCCCUUCCCAAAGUAUUATT against Mup3, inactive: -0.936. In the case of GGAAGAAAAUCUUGAAGCATT against Ddx51, the z-score is inactive: -0.232. The result for GCUAGUGAGUCGCUUGACUTT against Abcb8 reads inactive: 0.712; that for GCUAAUAGCCUGCCUAAGGTT against Plekhj1, inactive: 1.35; that for GGGUGGAGUGAAAUACUUUTT against Fam83f, inactive: 0.728. The result for GCAACUCGUACAAAAGGCGTT against Cnga1 reads inactive: -1.14; that for GGUGAGCAAGAACAAAAAGTT against Chil6, inactive: -0.71.

Take GGUUACCUGUGAAAAUAGUTT against Zfp606: the z-score is inactive: 1.54.

For the sequence GAAGCUGUUGCUACUGGACTT against Pth2, the z-score is inactive: -0.408. With GGACUUUUCUGCUAUUUACTT against Kcnh2 the figure was inactive: -0.471; with GGCUAAAUAUUACCACUGATT against Dyrk3, inactive: -0.198; with GGACAAAAGACAAAUACCGTT against Cdx2, inactive: -1.12. With “GGCUCUCUGAGGAUUCGAATT against 4930544M13Rik” the figure was inactive: -0.209; with GGUUGGACAAAAAGAAUCUTT against Ifngr1, inactive: 0.507; with CCUUGGACUAUGGCAAAAATT against Neurod6, inactive: 0.418.

With CCGUGCAACAAAAACUGGATT against Tnpo1, the z-score was inactive: -1.08. With CGCAUACUGUGGAAUAGUUTT against Spag4 the figure was inactive: -1.26; with GGCUUUUAGUACUGAUAGUTT against Neu3, active: 2.6; with GGAGAAAAGAGGCUUCCAGTT against Lad1, inactive: 0.754. Regarding CCUUCAAUCUUCCUAGUGATT against Bag6, the z-score was inactive: -0.0397. With CCAAUCUCCAGUUCAACAATT against Parp2 the figure was inactive: -0.215; with GGCCUGAAGGGAAAGAUUUTT against Rbbp4, inactive: -0.721.

As for UGAUUAUUGACCUGUUAGUTT against Olfr1193, the z-score was inactive: 0.926. The result for GGAAAGGAACAGAAAAGAATT against Tenm2 reads inactive: -0.295; that for GGACCUGCUCUUGGUCAUUTT against Fam118a, inactive: 0.461; that for GGGACUGAUCGGUACCGAATT against Igsf8, inactive: 0.531. For the sequence GUCUUCAACUCAGUUCAGUTT against Wap, the z-score was inactive: -0.433.

GGAUGGUCAAACACGUCACTT against Pla2g2c: the z-score was inactive: 0.157. The result for GGAGUUGCUGUACAACAAGTT against Ndufs8 reads inactive: -0.576; that for GGAUGAAUACAGUGAAUAUTT against Ppil3, inactive: -0.429; that for GGUGGAAAUCGAUAAAACUTT against Slc15a1, inactive: -0.573. CCGUGUGAAUCCCUGCAUUTT against Aldoa: the z-score was active: -2.85. The result for GGAAACCUUUUCAUUAACATT against Il23r reads inactive: 0.138; that for UCAUAGCAGAGAUUAGAAUTT against Hsfy2, inactive: -0.951. With GGUGUGUUACAACCAUUUGTT against Hsd17b6 the figure was inactive: -0.392; with GGAAAUGAAGGAAAAGGAATT against Ccny, inactive: -1.51. The result for GGUAUGACACAGUCAUACUTT against Vmn1r26 reads inactive: 0.596; that for GGCAAAGGAUCCAAGUUUGTT against Tmem123, active: 2.81; that for GCACAUAUGUCUUUCCCAGTT against Fbxl7, inactive: -0.931. With GGAGUUGAAGAGAAGCAGGTT against Tac4, the z-score is inactive: -1.65.

Turning to GGUCUAGCUCACAUCACACTT against C2, the z-score was inactive: -1.16. For the sequence CCGAAUCUCUCACGUGCCATT against Rtn4r, the z-score was inactive: -0.474. With CGAAAGGUCAAAUUAACAGTT against Serpinb5 the figure was inactive: 1.23; with GGGAACAAAAUCCAUGACGTT against Tdo2, inactive: -0.468; with GGCUCACAUUGUAACUUAGTT against Krtap5-2, inactive: 1.41. CCAUUAUAACUGUAUCUGATT against Gm609: the z-score is inactive: -1.55. Turning to GGCCUUUUCAACUUGUGGGTT against Olfr1048, the z-score is inactive: -1.83. Take “GGCUUAGGAAUCUAGGACUTT against D830044D21Rik”: the z-score was inactive: -0.404. In the case of CCAUAUAUUAUGGACCUUATT against Hepacam2, the z-score was inactive: -0.576.

Consider GGUACUUCCUACCUAACAGTT against Nipa1, for which the z-score is inactive: -0.235. The result for GGAACUCAGCUACAGUGAATT against Mettl17 reads inactive: 0.0663; that for CCUAGUGACUUUAAUGGGATT against Mrgprf, inactive: 0.182; that for CGACCUAAUGACAUUAUCATT against Egln3, inactive: 0.164. Regarding GGCAUCUCCAUCAAUACAGTT against Pdcl, the z-score is inactive: 1.8. With GCACCUGAGAAGCUCAUUGTT against Chil5 the figure was inactive: -1.96; with CGGAAAUCAACAUUGCGUUTT against Stxbp1, inactive: 0.394. With CCAGUUUAGUGGCUCUUCCTT against Lrrc23 the figure was inactive: 0.411; with GGCUCACAAUGAAAAAGGUTT against Zfp668, inactive: -1.02.

For the sequence GCAGCACAUAGAAACGUGUTT against Fnbp1, the z-score was inactive: -0.0942. For GGUGAGCCUGAGAUUUAAATT against Tpsb2, the z-score was inactive: 0.376.

For GGGAAUUGCCUCAGCUAAGTT against Men1, the z-score was active: 2.95. With GCGAUUGGCAGAUUGCUACTT against Tmem47 the figure was inactive: 1.01; with GGGCCUGAUUUCCUAUGCUTT against Pglyrp4, inactive: 0.658. The result for GGGAGAGUGUUUGUUCAUUTT against Dusp1 reads inactive: -0.082; that for CCACCAUUUAUAUUUGGUUTT against Slc35g1, inactive: -0.298.

Take GCAAACUAGAUAUCUAGGGTT against Lmx1a: the z-score is inactive: 0.385. The result for GGAACAUCCAAAGCUCCACTT against Trim30d reads inactive: 1.02; that for GGGACUUUGGGCUAAAUAGTT against Tspan1, inactive: -1.32; that for GGAGGACCAGUGCAUCUUUTT against Gpr173, inactive: -0.0215.

As for GGUUCCUAGUUACAACAUCTT against Pcdhga12, the z-score was inactive: 1.1. Consider GCGUAUUACACCCUUGGAATT against Terf1, for which the z-score is inactive: -0.462.

Take CCAGACUUGGGUGAAUGAATT against Olfr450: the z-score is inactive: 0.129. Regarding CCUGCCUUUGUAAAAGCCGTT against Bid, the z-score is inactive: 0.283.

As for GCCUGUUUGGUAUUCUUCCTT against Olfr832, the z-score was inactive: -1.19. The result for CCAUCCCGUUCACUAGAGATT against Mypn reads inactive: -1.73; that for GCACCACUAAUCGAGUUGGTT against Pigf, inactive: -0.265.

With GGACUCUGGAACAAGUCACTT against Slc2a8, the z-score is inactive: -0.599.

For CCCUGGUAUUGGUUUCACATT against Tlcd1, the z-score was inactive: -0.738.

With GCAUAUUACACAGCACUAGTT against Itgbl1, the z-score is inactive: -0.802.

As to CCUGAUAAACUCUAGUGUGTT against Six5, the z-score is inactive: -1.96.

Take GGAGGAAGACGAGUUCAUUTT against Rassf2: the z-score is inactive: -0.576. With GCGAUUUCUGGACAGCAAUTT against Cyp2r1 the figure was inactive: 0.207; with GCAGAAAAACGUGAACAUUTT against Ces3b, inactive: 0.0397; with CCUAGCAGUACUGUACGGUTT against Klc1, inactive: 1.68. The result for GGAUGGAGCUACUGAAAUUTT against Dera reads inactive: 0.39; that for UGUUGGUGGGCCUUAUAUUTT against Olfr1153, inactive: -1.02; that for GCAUGAUGCUGAGACAAGATT against Lce3c, inactive: -1.69. The result for GGCUAAGCUAUACCACCAUTT against Cckbr reads inactive: -1.32.

With GCUGUGUUAGGAUUGUCCATT against Olfr553, the z-score is inactive: 0.252. For the sequence “CGUAGGUUCUAACGAUUCCTT against C730034F03Rik”, the z-score is inactive: -0.688. The result for GGGUUAGCGCAUAAAGACATT against Fv4 reads inactive: 0.0276.
